Results reported in patent publication US20130045891A1.
No constants are given. Whether binding was seen depends on the method and setting. Some entries that bind do so weakly or less than the wild type.

What was measured:
[1] = target: P. alba isoprene synthase MEA G491S (+)TEV, from pDW100, expressed in strain DW398 (Populus alba) (UniProt Q50L36); test: X-ray crystal structure
[2] = target: P. alba isoprene synthase MEA G491S (+)TEV, from pDW100, expressed in strain DW398 (Populus alba) (UniProt Q50L36); test: X-ray crystal structure, 2.6 Å
[3] = target: P. alba isoprene synthase MEA G491S (+)TEV, from pDW100, expressed in strain DW398 (Populus alba) (UniProt Q50L36); test: X-ray crystallography, 2.6 Å, molecular replacement

binding [1]: binds | binding [2]: binds | binding [3]: binds
B1: P. alba isoprene synthase MEA G491S (+)TEV, from pDW100, expressed in strain DW398 (enzyme)
chain: MEARRSANYEPNSWDYDYLLSSDTDESIEVYKDKAKKLEAEVRREINNEKAEFLTLLELIDNVQRLGLGYRFESDIRGALDRFVSSGGFDAVTKTSLHGTALSFRLLRQHGFEVSQEAFSGFKDQNGNFLENLKEDIKAILSLYEASFLALEGENILDEAKVFAISHLKELSEEKIGKELAEQVNHALELPLHRRTQRLEAVWSIEAYRKKEDANQVLLELAILDYNMIQSVYQRDLRETSRWWRRVGLATKLHFARDRLIESFYWAVGVAFEPQYSDCRNSVAKMFSFVTIIDDIYDVYGTLDELELFTDAVERWDVNAINDLPDYMKLCFLALYNTINEIAYDNLKDKGENILPYLTKAWADLCNAFLQEAKWLYNKSTPTFDDYFGNAWKSSSGPLQLVFAYFAVVQNIKKEEIENLQKYHDTISRPSHIFRLCNDLASASAEIARGETANSVSCYMRTKGISEELATESVMNLIDETWKKMNKEKLSGSLFAKPFVETAINLARQSHCTYHNGDAHTSPDELTRKRVLSVITEPILPFERENLYFQ
